Holding throughout (assay): two-hybrid; BacterioMatch II bacterial two-hybrid; TrpR2 in pBT, HrpR, HrpS or HrpL in pTRG; E. coli XL1-Blue; spotted on selective M9 medium with 5 mM 3-AT, 28℃, 1-2 days
Assay [1] has as its target TrpR2 L104A (Pseudomonas syringae pv. actinidiae M228).
Assay [2] has as its target TrpR2 F98A (Pseudomonas syringae pv. actinidiae M228).
For assay [3], the target named is TrpR2 G76A (Pseudomonas syringae pv. actinidiae M228).
Assay [4] deals with TrpR2 L72A (Pseudomonas syringae pv. actinidiae M228).
Assay [5] concerns the target TrpR2 G118A (Pseudomonas syringae pv. actinidiae M228).
In assay [6] the target is TrpR2 D18A (Pseudomonas syringae pv. actinidiae M228).
The target in assay [7] is TrpR2 (temperature-responsive pathogenic regulator 2), bacterial two-hybrid fusion in pBT (Pseudomonas syringae pv. actinidiae M228).
Assay [8] addresses TrpR2 P37A (Pseudomonas syringae pv. actinidiae M228).
The target in assay [9] is TrpR2 L120A (Pseudomonas syringae pv. actinidiae M228).
The target in assay [10] is TrpR2 G57A (Pseudomonas syringae pv. actinidiae M228).

These are yes or no findings as the source states them, for the method shown. Binding calls can cover weak binding; strength is not graded here. Sequences can lack the tags named with a protein.

B1: HrpL, bacterial two-hybrid fusion in pTRG (protein, UniProt P37929 1-184)
chain: MLPNLVILDVTEPRKPSSSAGIRQLTADQIQMLRAFIQKRVKNADDVDDILQCVFLEALRNEHKFQHASKPQTWLCGIALNLIRNHFRKMYRQPYQESWEDDVHTDLEWHGDITHQVDGHRQLARVIEAIDCLPTNMQKVLEVSLEMDGNYQETANTLGVPIGTVRSRLSRARVQLKQQIDPFA
In the case of B1, the binding entry in [1], in assay [2], in assay [3], in assay [4], in [5] and in assay [6] was “binds” in each case. In addition, the binding entry in assay [7], in assay [8], in [9] and in [10] was “binds” in each case.

B2: HrpR, bacterial two-hybrid fusion in pTRG (protein, UniProt P37930 1-314)
chain: MSTDIDNDVRTRWNVTALSAGHQIAMHSALLDMDLLLCGETGTGKDTLASRIHELSSRTGPFVGMNCAAIPESLAESQLFGVVNGAFTGVCRAREGYIEPSNGGTLYLDEIDTMPLSLQAKLLRVLESRGVERLGSTDFIPLDLQVIASASAPLDELVEQGLFRRDLFFRLNVLTLQLPALRKRREQILPLFDQFTQDIAAECGRSAPTLDNGRVQILLSHDWPGNVRELKSAANAICPRIAVAGRRAVEARDPVTGLRMQMRVIEKMLIQDALKRHRHNFDAVLEELELPRRTLYHRMKELGVASHIDLAAES
Turning to B2, the binding entry in [7] is on record as “no binding”.

B3: HrpS, bacterial two-hybrid fusion in pTRG (protein, UniProt P37931 1-302)
chain: MNLDDEFDDDLDAERVPNLGIVAESISQLGIDVLLSGETGTGKDTTARRIHNMSGRQGRFVPMNCAAIPESLAESELFGVVSGAYTGADRSRMGYIEAAQGGTLYLDEIDSMPLALQAKLLRVLETRALERLGSTSTIHLDICVIASAQASLDDAVEEGKFRRDLYFRLNVLTLKLPPLRDQPERILPLFTRFVAASAKELNVAIPDVCPLLQQVLTGHRWPGNIRELKAAAKRHVLGFPLLGADSQTEEHMACGLKFQLRAIEKALIQQALKRHRNCIDAASLELDIPRRTLYRRIKELSI
On to B3, for which, in assay [7], the binding entry is on record as “no binding”.

The record behind these values is PMC12145522.
